Measured data: PubChem BioAssay AID1259425 (University of Nebraska Medical Center, 2018)

Aim: 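Compare each knockdown with KSR1 silencing using changes in marker transcripts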 (primary screen)
System: HCT116 human colon cancer cells
Knock-down reagent: siRNA pool against human genes, 50 nM siRNA
Measurement: 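After 50 nM siRNA pool, branched-DNA assay measures six marker transcripts per well, minus blank, normalised to the geometric mean of two housekeeping transcripts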
Direction: BNIP3L mRNA: higher = more BNIP3L transcript after knockdown; NDRG1 mRNA: higher = more NDRG1 transcript after knockdown; BNIP3 mRNA: higher = more BNIP3 transcript after knockdown; ALDOC mRNA: higher = more ALDOC transcript after knockdown; ACSL5 mRNA: higher = more ACSL5 transcript after knockdown
The deposit covers about 14,000 reagents; shown is a part drawn at random. A reagent listed more than once was tested more than once; the source does not tell the runs apart. Not given: the time to read-out.

no.	gene knocked down	BNIP3L mRNA, set 1	NDRG1 mRNA, set 1	BNIP3 mRNA, set 1	ALDOC mRNA, set 1	ACSL5 mRNA, set 1
1	RPS15A (GeneID 6210)	0.138	0.545	0.423	0.00422	0.268
2	CLK1 (GeneID 1195)	0.116	0.225	0.31	0.0191	0.228
3	MMP23B (GeneID 8510)	0.122	0.138	0.272	0.0353	0.167
4	BTF3P11 (GeneID 690)	0.042	0.137	0.148	0.00725	0.155
5	DNM1 (GeneID 1759)	0.127	0.231	0.226	0.0412	0.142
6	DSPP (GeneID 1834)	0.203	0.154	0.261	0.0524	0.129
7	ALPP (GeneID 250)	0.14	0.479	0.246	0.0175	0.252
8	ESYT2 (GeneID 57488)	0.119	0.202	0.37	0.0524	0.211
9	NRSN2 (GeneID 80023)	0.155	0.426	0.437	0.028	0.231
10	CTTNBP2 (GeneID 83992)	0.124	0.153	0.406	0.0643	0.219
11	IBTK (GeneID 25998)	0.111	0.175	0.252	0.0326	0.121
12	IBTK (GeneID 25998)	0.0562	0.0861	0.369	0.0168	0.257
13	SMAP2 (GeneID 64744)	0.125	0.134	0.335	0.0143	0.037
14	ADARB2 (GeneID 105)	0.13	0.256	0.379	0.032	0.27
15	HAS1 (GeneID 3036)	0.31	0.284	0.413	0.01	0.284
16	EIF4G1 (GeneID 1981)	0.0243	0.22	0.379	0.0365	0.267
17	EPS8L3 (GeneID 79574)	0.163	0.2	0.313	0.0843	0.219
18	HDHD3 (GeneID 81932)	0.0682	0.0285	0.203	-0.013	0.0561
19	COX16 (GeneID 51241)	0.0978	0.208	0.292	0.0201	0.168
20	STIP1 (GeneID 10963)	0.113	0.263	0.307	0.0258	0.158
21	VAPA (GeneID 9218)	0.111	0.165	0.273	0.028	0.211
22	MRPS11 (GeneID 64963)	0.0661	0.125	0.251	0.0353	0.146
23	ST8SIA4 (GeneID 7903)	0.0736	0.255	0.192	0.0296	0.0991
24	DUSP15 (GeneID 128853)	0.0545	0.0711	0.224	0.0199	0.14
25	GSPT1 (GeneID 2935)	0.157	0.387	0.412	0.0187	0.0926
26	SLC25A11 (GeneID 8402)	0.0474	0.186	0.341	0.101	0.268
27	NRBP2 (GeneID 340371)	0.167	0.167	0.5	0.0158	0.123
28	SNU13 (GeneID 4809)	0.171	0.414	0.37	0.0956	0.231
29	NUP85 (GeneID 79902)	0.0988	0.103	0.274	0.0331	0.103
30	CDY1 (GeneID 9085)	0.118	0.42	0.209	0.0143	0.231
31	ZSWIM4 (GeneID 65249)	0.226	0.805	0.492	0.047	0.442
32	DDI2 (GeneID 84301)	0.0553	0.0672	0.21	0.0173	0.113
33	SH3TC2 (GeneID 79628)	0.139	0.696	0.428	0.0568	0.58
34	EOMES (GeneID 8320)	0.0657	0.385	0.176	0.000495	0.302

Targets listed so far whose target name begins with H or h (2):
gene knocked down	BNIP3L mRNA, set 1	NDRG1 mRNA, set 1	BNIP3 mRNA, set 1	ALDOC mRNA, set 1	ACSL5 mRNA, set 1
HAS1 (GeneID 3036)	0.31	0.284	0.413	0.01	0.284
HDHD3 (GeneID 81932)	0.0682	0.0285	0.203	-0.013	0.0561
